Experimental data taken from article PMC10163288.
The other results are listed elsewhere or left out.

B1: il2ra_site2_3nfp_normal_mot_HHH_b2_07498_000000057_0001_1_14_H_._HHH_b2_00986_0002_0000400018_0000001_0 (protein)
chain: SSSSDIEERVKELLEEARELLEEGDRFEAARLVLEATRLALEGNDPELAREVLELYELIKGSSSS
B2: il2ra_site2_3nfp_sap_25_mot_HHH_b1_04781_af2_000000057_0001_1_18_H_._68a93843eea4aac11f7850c58dbd17f4_0001_0001_0000300015_0000001_0_0001 (protein)
chain: SSSSDLEEEAEELLFRAYRLMLEGNPEEARKLLEKAEELAREGGDEDLLRLIEWALEALRQSSSS
B3: il2ra_site2_2erj_normal_mot_af86707857d369f3e1d85dcabc5f9321_0001_000000201_0001_14_29_H_._HHH_b2_05893_0001_0000400040_0000001_0 (protein)
chain: SSSSDEEVRRLIEQAEELLEEGNPEEAVSVLIEAAHLAAREGNEELLKRISELFEELYRKSSSSS
B4: il2ra_site1_1z92_normal_mot_HHH_b1_06709_000000271_0001_41_56_H_._HHH_b1_03222_0001_0000100009_0000001_0 (protein)
chain: SSSSSANEEAIELALRAAERALEKGNPEKAREWLEFALRQAEILGNPELLEEIRELLEKLSSSSS
B5: il2ra_site1_3nfp_sap_15_mot_HHH_b2_00809_af2_000000121_0001_23_40_H_._HHH_b2_00375_af2_0001_0000100006_0000001_0_0001 (protein)
chain: SEEEEIEERLRELGVPPAQVRAVLRFFEQALKQGYPPEEVLEIIVRYLEKMGDPELARAVREVLK
B6: il2ra_site2_2erj_normal_mot_HHH_b2_06983_000000031_0001_43_57_H_._HHH_b1_03120_af2_0001_0000500021_0000001_0 (protein)
chain: SSSSDEEERELEELLVKLVELAREGDEEQAKKLLEELEELAEELNDLLTLMFVELLKREFSSSSS
B7: il2ra_site2_3nfp_normal_mot_HHH_b1_05627_af2_000000038_0001_43_56_H_._HHH_b2_03758_0001_0000400029_0000001_0 (protein)
chain: SSSSSKQEEYLRIALEIAERAAEQGDPEAARESLEAALLLAEALRNEELLEEIRQLLEEIGSSSS
B8: il2ra_site2_2erj_sap_14_mot_HHH_b1_04257_af2_000000188_0001_43_57_H_._HHH_b2_02437_0002_0000400020_0000001_0_0001_af2pred_0001_1_af2pred_swapped (protein)
chain: SSSSDVEERVRELLEEARELLEEGDPHRAASVLIEAAYLALEAGDDELFEEVSKVSDRIIRSSSS
B9: il2ra_site2_2erj_sap_25_mot_HHH_b1_05944_000000221_0001_38_56_H_._HHH_b1_01612_af2_0001_0000700025_0000001_0_0001 (protein)
chain: SSSNELAMFAFKLVSELVQELGLDSEQAAELFEFAKRLVEEGVSEEEIKELVEELAERLAGSSSS
B10: il2ra_site2_3nfp_sap_18_mot_HHH_b1_07556_000000077_0001_42_55_H_._HHH_b2_04115_af2_0001_0000100001_0000001_0_0001 (protein)
chain: SSSSSKAEEYIRVALEAVEELLKAGDPEAAERVLHIAKLAAESRNNEELQELIERLEEEVKSSSS
B11: il2ra_site2_2erj_sap_19_mot_HHH_b1_03609_af2_000000077_0001_42_55_H_._HHH_b1_01357_0001_0000200011_0000001_0_0001 (protein)
chain: SSSSSSVEEEVRELLEEAERAYEEGDLHRVYELAVEALRVAARNNDREALRLIREVMERLSSSSS
B12: il2ra_site2_3nfp_sap_21_mot_HHH_b1_05627_af2_000000038_0001_43_56_H_._HHH_b2_05082_0001_0000600020_0000001_0_0001 (protein)
chain: SSSSDERVERSVEYAKAVAKLIPDPELREELERLAEELEEHGDPRLLQELSELILEIANKQSSSS
B13: il2ra_site1_3nfp_normal_mot_HHH_b1_08357_af2_000000270_0001_1_19_H_._HHH_b2_06876_af2_0001_0000400023_0000001_0 (protein)
chain: SSSSDERAEEFWRLIRELIEAQKEGDEELAKELAERLEELARERNDETAERSVERLLELLRSSSS
B14: il2ra_site1_1z92_sap_29_mot_HHH_b2_01810_000000233_0001_40_54_H_._HHH_b1_02670_af2_0001_0000100011_0000001_0_0001 (protein)
chain: SSSSSLERSARIIVRIAVEIAGLSEEQEKLLEELAEELIERGLDFQELLKELDKLAVKLASSSSS
B15: il2ra_site2_2erj_sap_12_mot_HHH_b2_05633_000000270_0001_38_52_H_._HHH_b2_02572_0001_0000100008_0000001_0_0001 (protein)
chain: DEEEEVEELLERLAERAGVPQVEVENRNGTFHITIEGDNYAARTLEAAAEWFLKASGIPVEVTVE
B16: il2ra_site2_3nfp_sap_19_mot_HHH_b2_07498_000000057_0001_1_14_H_._HHH_b2_01176_0001_0000300017_0000001_0_0001 (protein)
chain: SSSSDREERLEKLLEELEELIRKNDEEEVRRLSAEIAHLAFENNDFEIFFKLAELLYEFASSSSS
B17: il2ra_site2_2erj_sap_22_mot_8fa6976bf83f87873b50afdd12020151_0001_1_000000155_0001_14_31_H_._HHH_b1_03742_af2_0001_0000100001_0000001_0_0001 (protein)
chain: SSSSDVEEALIRNALLLARELLEEGNPEEAEQVVRAAISYAEAANDEELLEEARQLLEEIGSSSS
B18: il2ra_site1_3nfp_sap_12_mot_HHH_b1_07180_af2_000000260_0001_1_19_H_._HHH_b2_05487_0001_0000100013_0000001_0_0001 (protein)
chain: DEEEIIREAVESMAEFANIPSVTVESSNGKFHVEIEGDDIEARAVSKLIEDAARAAGIDVTVEYE
B19: il2ra_site1_2b5i_normal_mot_2cbe48e66a1f39b3fed734b245ab0a04_0001_000000015_0001_17_31_H_._HHH_b2_07797_0001_0000200006_0000001_0_af2pred_dldesign_0_af2pred (protein)
chain: SSSSSSREEVRAEVERLLEEARKLEDPIEQNRLLYEALYLARKAKDPELIAKVERVAKELSSSSS
B20: il2ra_site2_3nfp_sap_15_mot_HHH_b1_07095_000000265_0001_1_20_H_._HHH_b2_07388_af2_0001_0000200007_0000001_0_0001 (protein)
chain: SSSSSEEVEEAQALATELARRLMEEGDHEAALELYRLALELYRTGDPELARELLEFVEEFSSSSS
B21: il2ra_site2_3nfp_sap_9_mot_HHH_b2_05976_000000001_0001_22_38_H_._HHH_b2_00671_af2_0001_0000300011_0000001_0_0001 (protein)
chain: SSSSDYEEQATESAEKMAKELGDEELVEELRELLEEYKEKGDARVLLELYEVILEVYERAHSSSS
B22: il2ra_site1_2b5i_sap_17_mot_e16fbc155443e7b5a8f44372f038f9e6_0001_1_af2_000000163_0001_16_32_H_._9e5b67f2fe50fe8120620fffc4d177d6_0001_af2_0001_0000200044_00000 … (protein)
chain: SSSSDEIFQEILRLYHEASELYRQGNHEEARKLLEEAIRLAEEGNDENALRDLERFLELLGSSSS
B23: il2ra_site2_3nfp_normal_mot_2b1f115384cdfca4a5db2aa6683d1a54_0001_af2_000000285_0001_52_65_H_._ems_3hM_1325_0001_0000300029_0000001_0 (protein)
chain: SSSELEEEVEELREIAEEAAKHNDEEAILRAASEASELAEKYDDPEFFDLYAFIADLRAKVVRSS
B24: il2ra_site1_1z92_sap_18_mot_HHH_b2_06954_000000142_0001_1_20_H_._HHH_b1_01220_0001_0000300033_0000001_1_0001_af2pred_0001_af2pred_1 (protein)
chain: SSSSEESLKKNAERLVEDLVRLAGLSEEQEKELEELAKELVERGVDPQEIARILEKLALELSSSS
B25: il2ra_site2_3nfp_sap_10_mot_HHH_b2_05976_000000001_0001_22_38_H_._HHH_b2_00671_af2_0001_0000800043_0000001_0_0001 (protein)
chain: SSSSDKELEIMQLAMRAHELAKEGDPEEARELLEEALRLAEEAGNEWQQRYVRARLLLLNSSSSS
B26: il2ra_site2_3nfp_normal_mot_HHH_b1_03236_af2_000000201_0001_37_52_H_._HHH_b2_02667_af2_0001_0000400023_0000001_0 (protein)
chain: SSSSDEEEVEEVKEKLERLLKEGDEEELEKLLKRAADLAYRLNDFELFALISEILLELIRGSSSS
B27: il2ra_site1_2b5i_normal_mot_22370d59370c406a0c205a431f537cfa_0001_af2_000000027_0001_1_31_H_._HHH_b1_03515_af2_0001_0000200012_0000001_0 (protein)
chain: SSSDDNELARRATEIVWRLRFEYNLSREQARALERLAAELLDRGVDEEEIEERLEELAKELGSSS
B28: il2ra_site2_2erj_sap_15_mot_a171aa182591c97700389b7a6f87ba9a_0001_af2_000000046_0001_32_46_H_._HHH_b2_06187_af2_0001_0000300019_0000001_0_0001_af2pred_0001_af2p … (protein)
chain: SSSSSDEEEVREEVERLLEEAERIPDQEEALKLLQEAAELALEIGDPELIELVDEVLQRLSSSSS
B29: il2ra_site2_2erj_sap_20_mot_HHH_b1_07584_000000201_0001_42_55_H_._HHH_b1_02580_af2_0001_0000600009_0000001_0_0001 (protein)
chain: SSSSSDWLHRLYELANELMKAVARGDEEEAEELAEEIQKLAEERDSPNVEEIAKALLRLLSSSSS
B30: il2ra_site2_3nfp_sap_25_mot_HHH_b2_06150_000000217_0001_39_53_H_._HHH_b2_05014_af2_0001_0000600020_0000001_0_0001 (protein)
chain: SSSSDEREKYLEAALLLLREALEEGDEELAERHAEILLQAAEDANDEEVRREVEEILKELSSSSS
B31: il2ra_site1_2b5i_sap_9_mot_HHH_b1_06258_af2_000000112_0001_42_56_H_._HHH_b1_00682_af2_0001_0002200062_0000001_0_0001_af2pred_dldesign_0_af2pred (protein)
chain: SSSSSEAEVLLKEAEAALKAGDKEKLEEILKRLDELIAASEDPRKRRRLQAVRDCIADALSSSSS
B32: il2ra_site2_3nfp_normal_mot_HHH_b1_06797_000000164_0001_24_40_H_._HHH_b2_08062_0001_0000200006_0000001_0 (protein)
chain: SSSSSKAEEYLRAVVLVIELALEAGDHESARSALHAAEQLAKDLGDEELLERLEELAERVNSSSS
B33: il2ra_site1_1z92_sap_23_mot_HHH_b1_02395_af2_000000187_0001_1_21_H_._HHH_b2_07504_af2_0001_0000500009_0000001_0_0001_af2pred_0001_af2pred_1 (protein)
chain: SSSDRRLEKNAKLIVRAAVEAAGLSEEQKEELEEVARELVEKGFSFEEIFRILDKEALKLASSSS
B34: il2ra_site2_3nfp_sap_12_mot_HHH_b1_04084_000000061_0001_23_39_H_._HHH_b1_08671_af2_0001_0000100012_0000001_0_0001 (protein)
chain: SSSSDEEELERLREEIEKLIEEGDKLEVAELVMELSELAARLQDEEAVKFVIRVYEWLKGSSSSS
B35: il2ra_site1_1z92_sap_15_mot_3c291a2f2994a8e029b17f9ec7f22732_0001_000000183_0001_17_31_H_._42f8b9a235e54c912819b8ab3aebd5a2_0001_0001_0000300018_0000001_0_0001_ … (protein)
chain: DEEEAEELLREILKERGSEEILERLLEHAERAFGDPKEALKALISVALKLLGDPRLEEALQLVRK
B36: il2ra_site1_3nfp_sap_12_mot_HHH_b1_01231_af2_000000170_0001_1_16_H_._HHH_b2_04884_af2_0001_0000600017_0000001_0_0001 (protein)
chain: SSSSSDVEERVEELLEQAEELVKKGNWEEALKAAEEVFHLIARAGNPELDRLLREWLRRNSSSSS
B37: il2ra_site1_1z92_normal_mot_HHH_b1_01239_000000025_0001_23_39_H_._HHH_b1_01610_af2_0001_0000400030_0000001_0_af2pred_0001_1_af2pred_swapped (protein)
chain: SSSSSSDEELERIQQLFKEASRVSKEEARELLEEAEELAKELGNELERRDIEIMLEFLSSSSSSS

These binders were tested against il2ra, P01589 (assay: yeast display titration).

Apparent Kd, inactive:
B1 no binding seen
B2 no binding seen
B3 no binding seen
B4 no binding seen
B5 no binding seen
B6 no binding seen
B7 no binding seen
B8 no binding seen
B9 no binding seen
B10 no binding seen
B11 no binding seen
B12 no binding seen
B13 no binding seen
B14 no binding seen
B15 no binding seen
B16 no binding seen
B17 no binding seen
B18 no binding seen
B19 no binding seen
B20 no binding seen
B21 no binding seen
B22 no binding seen
B23 > 52.4 µM
B24 no binding seen
B25 no binding seen
B26 no binding seen
B27 no binding seen
B28 no binding seen
B29 no binding seen
B30 no binding seen
B31 no binding seen
B32 no binding seen
B33 > 1.04 µM
B34 no binding seen
B35 no binding seen
B36 no binding seen
B37 no binding seen

A run of entries from the list above, as a working copy:
Apparent Kd, inactive:
B12 no binding seen
B13 no binding seen
B14 no binding seen
